# Several values for one entry are separate records, joined by “and”; a condition that tells them apart may be missing. Equal values may be shown once. In all, about 330,000 compounds went through this assay and about 1,000 (0.3%) were called active. The inconclusive results got no clear call from the source; some entries with a clear call stand among them for comparison. Calls come from the whole dose curve; as a rule, active = well fitted inhibition curve with a large enough effect; inconclusive = small, poorly fitted or top-dose-only effect; inactive = no such curve, though single readings can be large or run the other way; tested in mouse RAW 264.7 cells. Where the call is inconclusive, the potency comes from a doubtful curve fit.
# Test: qHTS for Inhibitors of Cell Surface uPA Generation; note: nearly all actives have a fitted effect of over 55% in size
# Details: cell surface uPA generation assay; series mostly up to 38.3 µM; activity change, negative = inhibition: at the top concentration
# Outline: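 Validation set in qHTS format. RAW 264.7 cells were pre-plated overnight and then exposed to compounds (up to 38.3 uM final) for 24 h at 37 C in 5% CO2, followed by a luminescent ATP-Lite measurement.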
# % is set by controls: 0 for no effect and ±100 for the full control effect; potency is the fitted concentration of half-maximal effect.
SMILES,Potency,"activity change, negative = inhibition"
c1ccc(-c2nc(-c3ccccn3)no2)cc1,"inconclusive: 1.26 µM [inhibitor, full curve]",–
Oc1ccc(Br)cc1C=Nc1ccc2[nH]ncc2c1,–,inactive: -8.16%
COc1ccccc1Nc1nc(-c2ccc3c(c2)NC(=O)CO3)cs1,"inconclusive: 11.2 µM [inhibitor, partial curve, poor fit]",–
Nc1nccnc1C(=O)N/N=C/c1ccco1,"inconclusive: 12.6 µM [inhibitor, single point]",–
CCC1CCc2sc(C(=O)NC3CCN(Cc4ccccc4)CC3)cc2C1 (centres undefined),"inconclusive: 12.6 µM [inhibitor, single point]",–
Cc1cc(C)c2c(=O)n(CC(=O)Nc3cccc(F)c3)sc2n1,"inconclusive: 12.6 µM [inhibitor, single point]",–
CCn1c(SCC(=O)Nc2sccc2C(N)=O)nnc1C1CC1,"inconclusive: 4.47 µM [inhibitor, single point]",–
O=C(CSc1ccccn1)Nc1nonc1[N+](=O)[O-],"inconclusive: 0.794 µM [inhibitor, partial curve, poor fit]",–
CCOc1ncccc1C(=O)OCc1cccc([N+](=O)[O-])c1,–,inactive: -8.31%
O=C(Cc1c[nH]c2ccccc12)N/N=C/c1ccccc1O,"inconclusive: 8.91 µM [inhibitor, partial curve]",–
Oc1ccc(C[C@H]2CNC(=S)N2CC2CCCN2C[C@H](Cc2ccccc2)N2C[C@H](Cc3ccc(O)cc3)N(CC3CCCCCC3)C2=S)cc1 (some centres undefined),"inconclusive: 28.2 µM [inhibitor, single point]",–
COc1cc(NC(=O)Cn2c([N+](=O)[O-])cnc2C)c(OC)cc1Cl,"inconclusive: 1 µM [inhibitor, single point]",–
S=C(Nc1cccc(Cl)c1)N(CCCN1CCCC1)Cc1cccn1Cc1ccc(Cl)cc1,–,inactive: 3.54%
CCn1ccnc1CN(C)Cc1nc(Cc2cccc(C(F)(F)F)c2)no1,–,inactive: -3.05%
CCOC(=O)c1[nH]c(C)c(C(=O)c2ccc(C)cc2)c1C,"inconclusive: 0.562 µM [inhibitor, full curve, poor fit]",–
CN(CCOCCOc1ccc(F)cc1)Cc1ccccc1,–,inactive: -7.95%
O=C1c2ccccc2C(=O)C1(CO)c1ccc(OC(F)F)cc1,"inconclusive: 5.01 µM [inhibitor, partial curve]",–
CCOc1ccc(OCCn2c(=S)[nH]c3ccccc32)cc1,"inconclusive: 20 µM [inhibitor, single point]",–
O=C(COC(=O)c1ccc(Br)o1)Nc1ccc(N2CCOCC2)cc1,"inconclusive: 11.2 µM [inhibitor, single point]",–
Cc1cc(NC(=O)c2ccccc2Cl)ccc1NC(=O)c1ccccc1Cl,"inconclusive: 2.51 µM [inhibitor, partial curve, poor fit]",–
Cc1cccc(C)c1NC(=O)NCc1ccco1,"inconclusive: 5.01 µM [inhibitor, single point]",–
O=C(NC(=O)c1cc([N+](=O)[O-])ccc1Cl)C1=C(N2CCCC2)COC1=O,"inconclusive: 14.1 µM [inhibitor, partial curve, poor fit]",–
CCOC(=O)/C=C/S(=O)(=O)c1ccc(NC(C)=O)cc1,–,inactive: -14.3%

# Six compounds already listed, ordered by count of non-hydrogen atoms, falling:
SMILES,Potency,"activity change, negative = inhibition"
Cc1cc(NC(=O)c2ccccc2Cl)ccc1NC(=O)c1ccccc1Cl,"inconclusive: 2.51 µM [inhibitor, partial curve, poor fit]",–
O=C(NC(=O)c1cc([N+](=O)[O-])ccc1Cl)C1=C(N2CCCC2)COC1=O,"inconclusive: 14.1 µM [inhibitor, partial curve, poor fit]",–
Cc1cc(C)c2c(=O)n(CC(=O)Nc3cccc(F)c3)sc2n1,"inconclusive: 12.6 µM [inhibitor, single point]",–
CCOc1ccc(OCCn2c(=S)[nH]c3ccccc32)cc1,"inconclusive: 20 µM [inhibitor, single point]",–
CCOC(=O)/C=C/S(=O)(=O)c1ccc(NC(C)=O)cc1,–,inactive: -14.3%
Oc1ccc(Br)cc1C=Nc1ccc2[nH]ncc2c1,–,inactive: -8.16%

# (more compounds)

SMILES,Potency,"activity change, negative = inhibition"
COc1cccc(-c2nnc(NC(=O)c3cccc(F)c3)o2)c1,"inconclusive: 3.98 µM [inhibitor, partial curve]",–
COc1ccc(OC)c(C(c2nnnn2CCc2ccccc2)N2CCC(C(N)=O)CC2)c1 (centres undefined),–,inactive: 1.78%
COc1cc(C(=O)OCC(=O)c2cc(C)n(CC3CCCO3)c2C)cc(OC)c1C (centres undefined),"inconclusive: 7.08 µM [inhibitor, single point]",–
O=S(=O)(NC1c2cccc3cccc(c23)C1Sc1ncccn1)c1ccccc1 (centres undefined),–,inactive: 4.28%
COc1ccc([N+](=O)[O-])cc1NC(=O)C(C)Sc1nc(C)c(C)c(C)n1 (centres undefined),–,inactive: -2.96%
CCCCCn1c(=N)n(CC(O)COc2ccccc2OC)c2ccccc21 (centres undefined),"inconclusive: 7.08 µM [inhibitor, partial curve, poor fit] and inconclusive: 7.94 µM [inhibitor, partial curve, poor fit]",–
O=C(CCC(=O)c1ccc(-c2ccccc2)cc1)Nc1cccnc1,–,inactive: 6.91%
COc1ccc(NS(=O)(=O)c2ccc(NC(=S)NC(=O)c3cccc(F)c3)cc2)nn1,–,inactive: -10.4%
Cc1cnc(NC(=O)CCc2ccccc2)s1,active: 10 µM,–
Oc1ccc(Br)cc1CNc1nccs1,"inconclusive: 11.2 µM [inhibitor, partial curve]",–
Cc1c(C(=O)Nc2ccc(-n3cnnn3)cc2)oc2ccccc12,"inconclusive: 10 µM [inhibitor, single point]",–
O=C(Nc1nnc(S(=O)(=O)N2CCOCC2)s1)c1ccc(F)cc1,–,inactive: -0.458%
CCOc1ccc(NC(=O)Cn2nnc(-c3ccc(C(N)=O)cc3)n2)cc1S(=O)(=O)N1CCCC1,"inconclusive: 4.47 µM [inhibitor, partial curve, poor fit]",–
Cc1cc(/C=C2\C(=N)N3N=C(CC(=O)N4CCOCC4)SC3=NC2=O)c(C)n1-c1ccccc1,"inconclusive: 12.6 µM [inhibitor, partial curve, poor fit]",–
Clc1ccc2c(NNc3ccccc3Cl)ccnc2c1,–,inactive: -1.31%
CN(CC(=O)Nc1ccccc1Cl)C(=O)CSc1nncs1,"inconclusive: 7.94 µM [inhibitor, partial curve, poor fit]",–
CN(C)S(=O)(=O)c1cccc(-c2nn(-c3ccccc3)cc2/C=C2\SC(=S)NC2=O)c1,–,inactive: -9.96%
Cc1cc(N=Nc2ccc(C)c(N=Nc3cc(C)c(N)cc3N)c2)c(N)cc1N,"inconclusive: 10 µM [inhibitor, partial curve, poor fit]",–
COCCCn1c(=O)/c(=C\c2ccccc2OC(F)F)s/c1=C(/C#N)C(=O)NC(C)C,–,inactive: -3.68%
COc1cc(C2C(C#N)=C(N)Oc3cc(O)ccc32)cc(OC)c1OC (centres undefined),"inconclusive: 0.02 µM [inhibitor, full curve, poor fit]",–
COc1ccc(C)cc1NC(=O)C1CCN(S(=O)(=O)c2c(C)noc2C)CC1,–,inactive: 2.22%
COc1ccc(CN2CCC(N3CC(C)OC(C)C3)CC2)c(OC)c1 (centres undefined),–,inactive: 0.212%
COc1cc(/C=N/NC(=O)c2ccc3c(c2)OCO3)ccc1O,"inconclusive: 2.51 µM [inhibitor, partial curve, poor fit]",–

SMILES,Potency,"activity change, negative = inhibition"
CC1CC(C)CN(C(=O)C2CCN(S(=O)(=O)c3cccs3)CC2)C1 (centres undefined),–,inactive: 0.122%
O=C(N/N=C/c1cc([N+](=O)[O-])ccc1O)c1cccc2cc[nH]c12,active: 4.47 µM,–
Cc1[nH]c2ccc(C(=O)N3CCN(c4cccc(Cl)c4)CC3)cc2c1C,"inconclusive: 28.2 µM [inhibitor, single point]",–
CCC1(c2ccc(F)cc2)NC(=O)NC1=O (centres undefined),–,inactive: 0.0439%
COc1ccc(S(=O)(=O)NC(CC(C)C)C(=O)NC(C)c2cccs2)cc1 (centres undefined),"inconclusive: 0.316 µM [inhibitor, full curve, poor fit]",–
Cc1ccc(S(=O)(=O)N(C)CC(=O)NCCCn2nc(C)cc2C)cc1,"inconclusive: 1.12 µM [inhibitor, full curve, poor fit]",–
CN(C)/N=C/c1ccc(/C=N/NC(N)=S)o1,–,inactive: 3.4%
CCn1c(C)c(C)c2cc(C(=O)N3CCc4ccccc4C3)ccc21,"inconclusive: 7.94 µM [inhibitor, partial curve, poor fit]",–
CC(OC(=O)c1cccnc1Cl)C(=O)Nc1ccc2c(c1)OCCO2 (centres undefined),"inconclusive: 14.1 µM [inhibitor, partial curve, poor fit]",–
NC(=O)N/N=C/c1cn(-c2ccccc2)nc1-c1cccnc1,"inconclusive: 8.91 µM [inhibitor, partial curve]",–
Cc1ccc(-c2ccc(/C=N\NC(=O)c3cc4c(ccc5ccccc54)o3)o2)cc1[N+](=O)[O-],–,inactive: 7.33%
O=S(=O)(c1ccc(OCc2nc3ccccc3s2)c(Cl)c1)N1CCOCC1,–,inactive: 4%
CCc1ccc(/C=N\NC(=O)c2ccc(Br)o2)s1,"inconclusive: 31.6 µM [inhibitor, single point]",–
CN1CCN(C(=S)c2ccc(-c3cccc([N+](=O)[O-])c3)o2)CC1,"inconclusive: 12.6 µM [inhibitor, partial curve, poor fit]",–
Cc1ccc(-c2nc(C(F)(F)F)cc(=O)[nH]2)cc1,"inconclusive: 31.6 µM [inhibitor, partial curve, poor fit]",–
COC(=O)c1ccc(CC(=O)c2c(C)cc(O)cc2O)o1,–,inactive: -1.66%
O=C(N/N=C/c1sc(=O)n(-c2ccccc2)c1Cl)c1ccccc1,"inconclusive: 10 µM [inhibitor, partial curve]",–
C[C@H](CO)N1C[C@H](C)[C@@H](CN(C)Cc2ccc(-c3ccccc3)cc2)Oc2c(NS(=O)(=O)c3ccc(F)cc3)cccc2C1=O,"inconclusive: 12.6 µM [inhibitor, single point]",–
O=c1c(Cl)c(N2CCOCC2)cnn1-c1nc2ccccc2[nH]1,"inconclusive: 10 µM [inhibitor, single point]",–
OC1CCCN(Cc2c3ccccc3cc3ccccc23)C1 (centres undefined),"inconclusive: 10 µM [inhibitor, single point]",–
Cc1cc(O)ccc1NC(=S)NC(=O)c1cncc(Br)c1,"inconclusive: 28.2 µM [inhibitor, single point]",–
COc1ccc(CNCC(O)(c2ccc(F)cc2)c2ccc(F)cc2)cc1OC,"inconclusive: 12.6 µM [inhibitor, single point]",–
CCCCc1nnc(NC(=O)CCS(=O)(=O)c2ccc(C)cc2)s1,"inconclusive: 10 µM [inhibitor, single point]",–

# Source: PubChem BioAssay AID540303 (National Center for Advancing Translational Sciences (NCATS), 2011)
